{"source": "patent US20190002562A1", "about": "(INTERVET, published 2019)", "binders": {"B1": {"name": "3B6 VH3 IgGB / VL3 (antibody, V domains shown)", "VH": "EVQLVQSGGDLVKPGGSVRLSCVASGYTFTTYGMSWVRQAPGKGLQWMGWINIYSGIPTYADDFKGRFTFSLDTAKNTAYLQLNSLRAEDTAVYYCTRFDGPDYWGQGTLVTVSS", "VL": "DIVMTQTPLSLSVSPGEPASMSCKSSQSLLNSVNQKNYLAWYRQKPGQSPQVLVYFASARVSGVPDRFIGSGSGTDFTLRISRVEADDLGVYYCQQYFSTPLTFGQGTKLELKR", "notes": "copies: 2 + 2"}}, "biological_target": "T1, HIS-tagged canine PD-1 ECD protein (canine)", "T1 construct": "also called PD-1 HIS; canine PD-1 ECD-HIS tagged protein; not shown: HIS tag", "T1 chain": "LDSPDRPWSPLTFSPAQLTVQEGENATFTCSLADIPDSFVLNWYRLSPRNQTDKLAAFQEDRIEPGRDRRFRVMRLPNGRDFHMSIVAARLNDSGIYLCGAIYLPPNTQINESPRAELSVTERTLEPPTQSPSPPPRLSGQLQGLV", "assay": "ELISA on the extracellular domain of canine PD-1", "note": "These are yes or no findings as the source states them, for the method shown. Some results given as binding are weak or reduced against the parent protein; the word gives no strength. Sequences can lack the tags named with a protein."}
{"binder": "B1", "values": [{"measurement": "binding", "value": "binds"}]}
